# Screen size: about 52,000 sequences; about 210 (0.4%) were called active.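 How the source made its calls: active means gene whose silencing raises cell survival under the drug, median off-target-corrected z-score across its silencing RNAs 2 or more; inactive means the rest.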 The list shows a part of the results.
# Test: Resistance to Poly (ADP-Ribose) Polymerase inhibitor: Gene Identification via Genome-wide siRNA Screen
# Settings: mouse BRCA2 R2336H ES cells, olaparib, CellTiter-Glo viability; active compounds read high
# Method in brief: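 Mouse BRCA2 R2336H ES cells were reverse-transfected with siRNA (20 nM final), treated at 48 h with 500 nM olaparib, and read by CellTiter-Glo after 72 h. Scores: MAD-based z per siRNA, median per gene, seed off-target correction.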
row,Sequence,z-score
1,GGAUCCAAGCAUUAUAGUGTT against LOC229512,inactive: -0.425
2,GCUGGACCGAAUUGAUUCATT against Egfl7,inactive: 1.32
3,GCAAUGGACCAUUUUCUUUTT against Olfr812,inactive: 0.171
4,GGCACUGAAUGACUUUGUGTT against Pik3cd,inactive: -0.3
5,GGUCCACGGUUACUAAAAATT against Klrd1,active: 2.45
6,GCUCAGAAUGCAGGUCGUATT against Abpe,inactive: -2.33
7,CCUUUUUAUCGUCUAUAUCTT against Nox1,inactive: 0.541
8,CGUGUUAUCUCGUAUUGUUTT against 5930422O12Rik,inactive: -0.979
9,GGACCAAAAGAACAAUACGTT against Sncaip,inactive: 1.13
10,GGUUCUCAUCAUUUCAACUTT against Sh3bgrl,inactive: 0.371
11,CGCCCAGUGCAAUUUUUUCTT against Gm592,inactive: -0.745
12,GGUUUAUUCUUGCUACUUUTT against B830009D23Rik,inactive: -0.205
13,GGAUGUGAAACAUGCUUUUTT against Olfr1030,inactive: 3.21
14,GGUAAUGAGAUGUCAUUUCTT against Spock1,inactive: 2.01
15,GCUCGAUGCGGAUGAAUAUTT against Lzic,inactive: -0.914
16,GGACAUGAUUAAUGAGGUGTT against Calm3,inactive: -2.64
17,CCGAUUUCCACAUCUGUCATT against D11Wsu99e,inactive: 0.623
18,GGAUCUCAGAUUUACUGUCTT against Dedd2,inactive: 3.94
19,GGAAAUUCAAGUCAGUGUUTT against C630049M13,inactive: 1.95
20,GGCCUAGAAACCUUGGUGUTT against Cyp2d10,inactive: -1.12
21,GGAUAUUCUCUAGUCUCCATT against Pelo,inactive: -1.19
22,GGUAGAUCCAACAAAACACTT against Vps54,inactive: 1.19
23,GGACCAACAUAACCUCUACTT against BC037432,inactive: 0.0137
24,AUCAAGCAAGGGAACUCUGTT against Noto,inactive: -1.19
25,GCAAGACAGAACGUAUUAATT against Fem1c,inactive: -0.521
26,CGUAUUAGAGAAGAUUACATT against Ckt2,inactive: 0.297
27,GGCGAUGAGUUUGAACUGCTT against Bcl2l1,inactive: -1.64

row,Sequence,z-score
1,GCCUGUUGGUACCAAAUGGTT against Unc5b,inactive: -1.08
2,GGGAAUGAGUCAGCUCUUUTT against Cd163,inactive: -0.227
3,GGACUCAUGAAAUCAAGAATT against D6Wsu116e,inactive: 1.26
4,CGGACUAUUUGAAAUGGCUTT against Ppt2,inactive: 1.54
5,GGAACAAGGCUUUUUCCACTT against Olfr481,inactive: -0.115
6,GCACCCUCCACCAUUGUGATT against Sqstm1,inactive: -1.69
7,CCCAACUGUCAAAUAAUCCTT against LOC219026,inactive: -0.257
8,GCUUUAUUGCUACAAAUUGTT against Mlr2,inactive: 0.565
9,CCUUAGGAAACGAUCUUCATT against 5930412E23Rik,inactive: 0.465
10,GCUUGUUUCUAUGAUUAAGTT against Phf10,inactive: 0.263
11,GGAGAGUCAAGUCUUUUCUTT against Dnalc4,inactive: 0.0704
12,GCCCUUAGAGAGAAUUUAUTT against Lmo2,inactive: 1.52
13,CGAUUGUCAGGAUCCAUUUTT against Vipr1,inactive: 0.0543
14,GGAGAGUGACAACAGCUUCTT against 1700037H04Rik,inactive: -0.847
15,GGGAAAUUCAGUCUCAUUCTT against P2rx2,inactive: 1.66
16,GGAGGAUUAGUAAAUUCAATT against Ier2,inactive: -0.473
17,GGUACAACUCUAAGAGAAGTT against Rpl39,inactive: -3.01
18,GGAAGAUGGCACUGAGAUCTT against Itgae,inactive: 1.89
19,GGCCACUUUGGCUGAAAUUTT against Tbr1,inactive: -2.65
20,CCAUACAAGGGUGACAAUUTT against Olfr822,inactive: -1.9
21,GGAGUAACAACACAACAUUTT against Mab21l1,inactive: -1.15
22,GCUGGAUACAUUGUGUUCUTT against Rnf44,inactive: -0.432
23,GGACUUUGAGAAGGUCGAUTT against Khk,inactive: -1.16
24,GAUAAGUGCUUUCGUGUUUTT against Klrb1b,inactive: 0.685
25,GGUUAUGAGGCUUAAUAAATT against 2810423G08Rik,inactive: 1.54
26,GCUAACUGCACUCCGAGAUTT against Ddef1,inactive: 0.243
27,GCAACAUUUCUCGGAAAUUTT against Olfr1275,inactive: -2.21

row,Sequence,z-score
1,GCUACUAUAUGCGUUUCUUTT against Fads2,inactive: 1.88
2,GGAAAAUGUUUGGACUUUGTT against 5033428A16Rik,inactive: 0.227
3,GCAAUUGUUAACUCUGGGATT against Olfr1200,inactive: 1.63
4,GGAAAGCAUUGUUUUUUUGTT against Plekhk1,inactive: 0.649
5,GGGUGUAUUGAGAAUCAACTT against 4930429A22Rik,inactive: -0.554
6,GCAGACCGAGUGAUCACCUTT against Cul4a,inactive: 0.129
7,GCCACUCCUGGACACAAAATT against Ccnt2,inactive: -0.672
8,GGAAAAAUCACCAGUAAAATT against 5730509K17Rik,inactive: 0.225
9,CCAAACACUAUGUGACAAGTT against Trim8,inactive: -0.17
10,UGUUGGAUACUAGUCACAATT against Olfr1066,inactive: -0.0355
11,GGACUAUGCAGAUGCCUACTT against Cacnb3,inactive: 0.398
12,GGGAUAUGGUGUGAUCUUUTT against Cyp2b19,inactive: -0.905
13,GGGCAGAAUGCCAGUGUACTT against Kif22,inactive: -1.61
14,GGCUACCCAUGCUACCUACTT against 4930517K23Rik,inactive: 0.572
15,GGGUCUUUGUACAGAUUGCTT against Olfr275,inactive: 0.213
16,CGGAGCUCUAAAUGAACAUTT against Snai3,inactive: 0.304
17,CCUCAACAUAUUCAAACAUTT against Tlr7,inactive: 0.502
18,GGACAUAAAAUAUCUACGGTT against Trim17,inactive: -0.2
19,GGUGUUCAUUGAAGUCCAGTT against D11Ertd603e,inactive: -0.639
20,GAGUUACAUGCGAAUAUGATT against Ndufc1,inactive: 2.19
21,GGAAGAUGUUUAUUCAAGUTT against D230019K24Rik,inactive: 1.6
22,GCCAGAGGAUAACCUAUCGTT against Dsg4,inactive: -0.393
23,CCGAUUUAACUGAAUUUGCTT against Acaa2,inactive: -0.0932
24,CCACUCAUCAGUGACAAAATT against Olfr820,inactive: -1.06
25,CGUGGUCUCGGACACUUUCTT against Hcn2,inactive: 0.262
26,GGCCCAGCAUGCAAGUUAUTT against Sh2d2a,inactive: 0.295
27,GCAAGUGUACUAUUCCAUCTT against Myh6,inactive: 0.769

# Individual results from above.
# Entry of GCAAGUGUACUAUUCCAUCTT against Myh6 under z-score: inactive: 0.769
# Entry of CGGAGCUCUAAAUGAACAUTT against Snai3 under z-score: inactive: 0.304
# Entry of GGAAAAUGUUUGGACUUUGTT against 5033428A16Rik under z-score: inactive: 0.227
# Entry of CCGAUUUAACUGAAUUUGCTT against Acaa2 under z-score: inactive: -0.0932
# Entry of UGUUGGAUACUAGUCACAATT against Olfr1066 under z-score: inactive: -0.0355

# Additional results.

row,Sequence,z-score
1,GGCUAAGUAGACAGGUUUUTT against Olfr1288,inactive: -0.132
2,GCUCAUUCCAGGUAUCUGATT against Fcna,inactive: -0.049
3,GGAUGUUGUCCAUACUGUATT against Zfp36l2,inactive: 1.02
4,GGAUGUAAGGCCUUUUUUATT against Esr2,inactive: -0.531
5,GCGGCAUUCGUCCAAAUUGTT against Tpt1h,inactive: -0.38
6,GGAACAUAAGAUCUGCCUGTT against Crybb1,inactive: -1.7
7,GGAACAUGGCAACUCCGUGTT against Hcn1,inactive: 0.411
8,GGUAAAUAGCGAUAAGGUATT against Tgm1,inactive: 1.16
9,GGAACUCACCCUCAGCUUGTT against 6720456H20Rik,inactive: 0.63
10,GGACUCUUUUUGUUCUUUGTT against Vgll2,inactive: -0.293
11,GGCUGUUGUGCAGACUACATT against 2700094F01Rik,inactive: -2.9
12,GGUUAGAAGAAGAAACCCGTT against Prph1,inactive: -0.0726
13,GGCUGUUCGAGCCCUGAAATT against Naca,inactive: -2.29
14,GCGCAAGUACCUCAAGAGUTT against Grem2,inactive: 0.717
15,GGAUGCUUGUGCAAAGAUGTT against C030032C09Rik,inactive: -1.93
16,GGUCCAUGGAAUAGUACGGTT against Gmds,inactive: 2.19
17,GGGUUGUACUGAAAUAGUGTT against Il1rap,inactive: 1.92
18,CCUACAGGCGGAGAAACAUTT against Serhl,inactive: -1.96
19,GGUUGACGAAUAAAUCAACTT against 4921525H12,inactive: 0.051
20,GGAUGAACAAAAUAAGACUTT against C630025C03,inactive: -1.07
21,GGGUUUGAAAAUUGUACAATT against Sypl,inactive: 1.59
22,GGUAACAUCAACACCAAACTT against Nit1,inactive: -0.473
23,CCGAGAGCCAAGAUGCCAATT against Armc7,inactive: -0.517
24,GGACGAACAAUAGAAGAACTT against Agtpbp1,inactive: -0.12

# From PubChem BioAssay AID1347423 (Functional Genomics Laboratory (NCATS/FGL), 2020)
